# Reference: PubChem BioAssay AID2685 (National Center for Advancing Translational Sciences (NCATS), 2010)
# This is one part of the list. These are further read-outs of the screen, such as a control signal, another cell line or another target. No call is given for them. Compounds called inactive in the main read-out are mostly missing here. Words in brackets tell the shape of the fitted curve; partial curves, single points and poor fits give uncertain potencies.
# Assay: qHTS Assay for Lipid Storage Modulators in Drosophila S3 Cells;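 as to cell number change: cells counted by Cell Tracker Red CMTPX staining in the red channel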
# Conditions: BODIPY lipid droplet fluorescence, 18-24 h; for cell number change: measured here: cell count max response, cells fed with added oleic acid
# In short: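 Laser-scanning cytometry quantifies lipid droplet accumulation (500–530 nm total intensity; droplet/cell object ratio) in oleic acid-fed (400 uM added) Drosophila S3 cells treated with a concentration series. 20 uM Triacsin C defined 100% inhibition.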
# [1] = measured here: lipid fluorescence (Fed channel) AC50, cells fed with added oleic acid
# [2] = measured here: cell number channel AC50, cells fed with added oleic acid
Compound,AC50 [1],cell number change,AC50 [2]
O=C(CSc1nc2ccccc2c(=O)n1CC1CCCO1)NCc1ccc2c(c1)OCO2 (configuration not stated),"6.51 µM [rising, single point]",,
CCOc1ccc(N(Cc2cc3cc(OC)ccc3[nH]c2=O)S(C)(=O)=O)cc1,"6.51 µM [rising, partial curve, poor fit]",4.46%,"6.51 µM [rising, single point]"
CC(C)(C)NC(=O)c1ccccc1-c1nc(-c2ccccc2Cl)no1,"2.59 µM [rising, partial curve]",82.3%,"2.59 µM [rising, full curve]"
O=C(C1CCCN(c2ncnc3c2nc2n3CCCCC2)C1)N1CCN(c2ccc(F)cc2)CC1 (configuration not stated),,9.54%,
O=C(c1cccnc1)N1CCc2ccccc21,"11.6 µM [rising, partial curve]",105%,"13 µM [rising, partial curve]"
CNC(=O)c1cc2c(-c3ccccc3)nn(C)c2s1,"23.1 µM [falling, single point]",-16.9%,
Cc1ccc(C(=O)NCCCNC(=O)c2ccccn2)cc1,,19.2%,
COc1cccc(C2CC(c3ccc(Cl)cc3)n3nc(N)nc3N2)c1 (configuration not stated),,9.61%,
CCC(=O)N1CCN=C1SCc1cc(C)ccc1C,"6.51 µM [rising, single point]",-27.7%,
NC(=O)N1N=C2/C(=C/c3ccccc3)CCCC2C1c1ccccc1 (configuration not stated),"1.84 µM [rising, partial curve, poor fit]",6.85%,
OC1CNCc2cc3c(cc21)OCCO3 (configuration not stated),"4.11 µM [falling, full curve]",-7.75%,
C/C(N)=C(/C#N)C(=O)COC(=O)CSc1ccccc1,"20.6 µM [falling, partial curve, poor fit]",-8.32%,"0.82 µM [falling, full curve, poor fit]"
CC1CCCC(NC(=O)COC(=O)Cc2cn3ccsc3n2)C1C (configuration not stated),"5.8 µM [falling, single point]",-11.9%,"1.3 µM [falling, full curve, poor fit]"
Nc1nnc(-c2ccc(Cl)cc2)s1,"2.59 µM [rising, partial curve]",28.3%,"0.411 µM [rising, full curve]"
O=C1c2ccccc2C(=O)N1CCCCSc1nnc2c(Cl)cc(Cl)cn12,"2.31 µM [rising, partial curve]",,"4.11 µM [rising, partial curve]"
CCC(C(=O)N1CCN(Cc2ccc3c(c2)OCO3)CC1)n1c(=O)[nH]c2ccccc2c1=O (configuration not stated),"29.1 µM [falling, single point]",-18.4%,
CCOc1ccccc1Nc1nnc(SCC(=O)NC(Cc2c[nH]c3ccccc23)C(=O)O)s1 (configuration not stated),,20.1%,
O=C(Nc1cccc(C(F)(F)F)c1)c1cccc(NS(=O)(=O)c2ccc(Br)c(C(=O)O)c2)c1,"29.1 µM [rising, single point]",52.9%,"20.6 µM [rising, single point]"

Compound,AC50 [1],cell number change,AC50 [2]
COc1cc(C(=O)NC(=S)NNC(=O)c2cnccn2)cc(OC)c1OC,"11.6 µM [falling, partial curve, poor fit]",-1.6%,"0.00461 µM [falling, full curve, poor fit]"
COc1ccccc1Nc1nc(-c2sc(NC(=O)c3ccccc3)nc2C)cs1,,67.5%,"23.1 µM [rising, partial curve]"
O=C(NCc1ccccc1)C(c1cccnc1)N(C(=O)c1ccccn1)c1ccc(F)cc1 (configuration not stated),"0.13 µM [rising, full curve, poor fit]",30.4%,"7.31 µM [rising, full curve, poor fit]"
Cc1ccc(Cl)cc1NS(=O)(=O)c1ccc(-n2cccn2)cc1,"7.31 µM [rising, partial curve, poor fit]",4.28%,
COc1ccc(N2CCN(C(=O)c3[nH]c4ccc(OC)cc4c3C)CC2)cc1,,7.09%,
COc1ccccc1N(Cc1ccccc1)S(=O)(=O)c1cccc(C(=O)Nc2ccccn2)c1,,43.3%,"13 µM [rising, partial curve, poor fit]"
CO/N=C/NC(=O)N1OC[C@@H]2COc3ccc4ccccc4c3[C@@H]21,"0.461 µM [rising, full curve, poor fit]",,
O=C(C1Cc2ccccc2CN1S(=O)(=O)c1cccs1)N1CCCCC1 (configuration not stated),,-3.17%,
Cc1cccc(C)c1Nc1nnc(SCC(=O)Nc2ncc(C(F)(F)F)cc2Cl)s1,"18.4 µM [rising, single point]",23.1%,
COc1ccc(C2=CC(=O)CC(C)(C)C2)cc1,"0.517 µM [falling, single point]",-9.15%,
Fc1ccc(CSc2nncn2NC/C=C/c2ccccc2)cc1,"0.651 µM [rising, full curve, poor fit]",,"2.59 µM [rising, single point]"
CN1C(=O)/C(=C/c2ccccc2F)Sc2ccc(C(=O)N3CCCC3)cc21,"6.51 µM [falling, full curve]",-23.4%,
CN1C(=O)N(CN2CCCCC2)C2C1N(C)C(=O)N2CN1CCCCC1 (configuration not stated),"23.1 µM [falling, single point]",-105%,"0.291 µM [falling, full curve]"
CC(=O)NCc1cc(-c2nn(C)c(=O)c3ccccc23)ccc1C,"29.1 µM [falling, single point]",,
COC(=O)c1c(NC(=O)C2COc3ccccc3O2)sc2c1CCN(C(C)=O)C2 (configuration not stated),"1.03 µM [rising, partial curve]",25.3%,
Cc1cc(=O)[nH]c2c(C)c(Cl)ccc12,"0.082 µM [rising, full curve, poor fit]",10.4%,
Cn1ncc(Cl)c1C(=O)NC(=S)Nc1sc2c(c1C#N)CCCCC2,"29.1 µM [rising, single point]",,
C=CCN1CCN(C(c2ccc(Cl)cc2)c2nnnn2CCc2ccc(OC)c(OC)c2)CC1 (configuration not stated),"0.651 µM [falling, single point]",,"0.366 µM [falling, partial curve, poor fit]"

# 3 neighbouring records out of the list so far:
Compound,AC50 [1],cell number change,AC50 [2]
COc1ccccc1N(Cc1ccccc1)S(=O)(=O)c1cccc(C(=O)Nc2ccccn2)c1,,43.3%,"13 µM [rising, partial curve, poor fit]"
CO/N=C/NC(=O)N1OC[C@@H]2COc3ccc4ccccc4c3[C@@H]21,"0.461 µM [rising, full curve, poor fit]",,
O=C(C1Cc2ccccc2CN1S(=O)(=O)c1cccs1)N1CCCCC1 (configuration not stated),,-3.17%,
